Assay [1] addresses recombinant human D-dopachrome tautomerase (human) (UniProt P30046). The assay can be described thus: ELISA; 'a similar ELISA set up' to the ACKR3 ELISA, for CXCR4; details in Supplemental data file 1 Fig. 5; only the target purified. Background: In an ELISA, binding on a coated surface is turned into a signal by an enzyme label.
The target is the same in assay [2]. The assay can be described thus: ELISA; plates coated with rhDDT (1 µM, 100 nM, 10 nM) or rhMIF (1 uM) in 0.1M NaHCO3 pH 8.6 overnight at 4 °C, blocked with 2% BSA; HeLa cell lysate added at 4°C for 20 min; detected with an antibody against ACKR3; only the target purified.
Assay [3] addresses T1, recombinant human macrophage migration inhibitory factor (human) (UniProt P14174).
T1 sequence: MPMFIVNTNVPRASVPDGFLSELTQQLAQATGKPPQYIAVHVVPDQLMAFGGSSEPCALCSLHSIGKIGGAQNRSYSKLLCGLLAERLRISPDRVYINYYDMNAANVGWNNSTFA
The description is as above.

Sequences of proteins named here, by UniProt entry; tags and fusion partners are left off.
UniProt P30046: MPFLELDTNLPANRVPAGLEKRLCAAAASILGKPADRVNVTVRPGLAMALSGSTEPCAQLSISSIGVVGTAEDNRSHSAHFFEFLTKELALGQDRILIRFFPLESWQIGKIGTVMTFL
UniProt P61073: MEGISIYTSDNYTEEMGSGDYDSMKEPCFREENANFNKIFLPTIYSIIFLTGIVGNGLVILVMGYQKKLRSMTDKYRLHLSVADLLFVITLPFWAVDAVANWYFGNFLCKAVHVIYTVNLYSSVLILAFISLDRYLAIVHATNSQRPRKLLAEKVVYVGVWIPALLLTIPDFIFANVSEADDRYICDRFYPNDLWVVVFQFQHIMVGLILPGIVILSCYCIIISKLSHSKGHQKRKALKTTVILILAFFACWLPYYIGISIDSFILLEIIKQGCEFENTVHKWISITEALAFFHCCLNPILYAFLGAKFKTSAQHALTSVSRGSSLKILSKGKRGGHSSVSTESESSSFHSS
UniProt P25106: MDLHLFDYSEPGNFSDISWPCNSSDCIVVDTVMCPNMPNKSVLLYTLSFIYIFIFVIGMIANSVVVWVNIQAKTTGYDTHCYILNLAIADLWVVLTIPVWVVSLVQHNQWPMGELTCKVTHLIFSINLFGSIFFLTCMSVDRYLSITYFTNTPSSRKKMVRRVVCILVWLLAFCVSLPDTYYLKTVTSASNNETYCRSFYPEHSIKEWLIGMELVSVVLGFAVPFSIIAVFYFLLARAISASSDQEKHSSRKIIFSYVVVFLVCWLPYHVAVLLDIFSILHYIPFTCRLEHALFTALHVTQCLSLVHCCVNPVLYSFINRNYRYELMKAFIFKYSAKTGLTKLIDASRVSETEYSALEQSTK

Results are given in words; binding and its absence hold for the method and conditions named. Some entries that bind do so weakly or less than the wild type.

Turning to “C-X-C chemokine receptor 4 (from UniProt P61073 1-352)”, the binding result in assay [1] is recorded as “no binding”.

As for “atypical chemokine receptor 3 (HeLa cell lysate) (from UniProt P25106 1-362)”, the binding entry in assay [2] and in assay [3] was “binds” in each case.

For the origin of these results see paper PMC8185224.
